Here are results for 23 sequences from article PMC7819943, “Rice protein-binding microarrays: a tool to detect cis-acting elements near promoter regions in rice”.

Some of the results follow.

This assay has as its target T1, OsSMF1 (Oryza sativa, UniProt Q6ZLB0 1-436).
T1 sequence: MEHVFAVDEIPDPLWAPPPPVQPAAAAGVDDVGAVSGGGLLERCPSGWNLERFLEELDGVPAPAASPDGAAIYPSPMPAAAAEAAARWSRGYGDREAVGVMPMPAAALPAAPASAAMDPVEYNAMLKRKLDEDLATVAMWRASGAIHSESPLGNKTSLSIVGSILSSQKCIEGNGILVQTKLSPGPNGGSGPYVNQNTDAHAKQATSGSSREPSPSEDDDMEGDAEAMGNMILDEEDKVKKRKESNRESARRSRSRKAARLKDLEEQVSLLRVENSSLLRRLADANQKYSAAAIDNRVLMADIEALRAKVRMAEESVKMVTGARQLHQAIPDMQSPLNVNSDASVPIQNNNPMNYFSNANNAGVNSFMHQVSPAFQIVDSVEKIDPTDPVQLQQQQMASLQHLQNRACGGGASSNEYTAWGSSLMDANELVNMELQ
Description: protein-binding microarray (RPBM); PBS, 2% BSA, 51.3 ng/ul salmon testes DNA, 50 uM zinc acetate, 200 nM TF, 25 C, 1 h; high values mean tight binding. The following applies: protein: recombinant; tags: N-terminal polyhistidine and DsRed monomer fusion (pET32a); chain copies: 2; label: CyDye5-dUTP incorporated in the synthesized complementary strand; 3' TTTTT single-stranded linker to array surface; dsDNA, one strand shown. The essentials: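 Using Ni–NTA, transcription factors fused N-terminally to polyhistidine and DsRed were purified after expression in E. coli BL21-CodonPlus. These were incubated at 200 nM with a blocked, double-stranded custom Agilent array for 1 h at 25 °C in a buffer containing 50 µM zinc acetate, and the array was washed. The binding signal is per-feature fluorescence intensity (arbitrary units) on an Axon 4000B scanner.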
On to “CGATAATGATTCTAAGCCGATGACGTCTTTGCCGATTACCCGGAGTCACCTAGTGCAG”, for which the binding signal is 5020 fluorescence intensity (a.u.). For “GTTATGTAAACTCTTTAGCCCATATTGTATATGTGGCATCCGGAGTCACCTAGTGCAG”, the binding signal was 4970 fluorescence intensity (a.u.). Take “AGAAATTGCATGGCTTACTTGGCCGTGTTTGTCATAGACCCGGAGTCACCTAGTGCAG”: the binding signal was 3750 fluorescence intensity (a.u.). “TGGCTGCTCACCATTGCAAGAATACTGTTCGACGACTAGCCGGAGTCACCTAGTGCAG”: the binding signal was 5560 fluorescence intensity (a.u.). As to “GCGTGGGGCGCCGGTGGCGGAGGGTGGGGACGACAACCAGCGGAGTCACCTAGTGCAG”, the binding signal was 65500 fluorescence intensity (a.u.). Take “TTTTCTCTGTATGTATCCAGAAGGATATGCCACCTGGATGCGGAGTCACCTAGTGCAG”: the binding signal was 4660 fluorescence intensity (a.u.). Turning to “TATATTCTCATGCACCAAGCAACCACACGTACACCTATATCGGAGTCACCTAGTGCAG”, the binding signal is 4130 fluorescence intensity (a.u.).

Consider “CAACCATTAGAACTGCTAGTTGCTGGATATCTAGATGCATCGGAGTCACCTAGTGCAG”, for which the binding signal was 3520 fluorescence intensity (a.u.). With “TTGTTTAGACTTAAACTCAATGACTTAAACTTGGAAATCACGGAGTCACCTAGTGCAG”, the binding signal is 30600 fluorescence intensity (a.u.). For “GTTACCAGTGAGTCAATCATCTCCCTTTCTTTCCTCTCTTCGGAGTCACCTAGTGCAG”, the binding signal was 4540 fluorescence intensity (a.u.). For the sequence “GAGCCGAGGCGTCACCCTAGTTTTGCGGTGGAGGGGTACGCGGAGTCACCTAGTGCAG”, the binding signal was 3570 fluorescence intensity (a.u.). As for “GCCAATAGCTGACGATATGTAAGTAGGTAACAACAGAGCACGGAGTCACCTAGTGCAG”, the binding signal was 3530 fluorescence intensity (a.u.). Consider “TCTCACCTCTCACTTCGACTTCTCGTCGCTGGCCGCCTCTCGGAGTCACCTAGTGCAG”, for which the binding signal was 8080 fluorescence intensity (a.u.). “GACATTACGGGCCCACAAGTACGCGTCCCCACCAGCCATACGGAGTCACCTAGTGCAG”: the binding signal is 3320 fluorescence intensity (a.u.). Regarding “TGGGCTCACCACGTCTCCAGATTCCAGATCACCCGCCCGCCGGAGTCACCTAGTGCAG”, the binding signal was 4830 fluorescence intensity (a.u.). Take “CAATTTTCCCCAACTCGATCGACGCGGACCGGACCGGACCCGGAGTCACCTAGTGCAG”: the binding signal was 3360 fluorescence intensity (a.u.). As for “GAAGAACGCTAAAATTTAGTGACGCACTCTGAATGGCCTCCGGAGTCACCTAGTGCAG”, the binding signal is 3320 fluorescence intensity (a.u.). With “AAAATGTACCTAAGCGATCAGGCCAACCAGGCCAGGGGCCCGGAGTCACCTAGTGCAG”, the binding signal was 3170 fluorescence intensity (a.u.). For the sequence “ATTTGAACAACCTTAGCCACATAGACCCATATTAGTGTAGCGGAGTCACCTAGTGCAG”, the binding signal was 3870 fluorescence intensity (a.u.). For the sequence “AGCCAATTGTTGGTGCAGTAGCACAATACGCCCATGTCATCGGAGTCACCTAGTGCAG”, the binding signal is 3610 fluorescence intensity (a.u.).

In the case of “ACAGATTTTCGACCACAAAGAGATGGCAATGAGTTTCCTTCGGAGTCACCTAGTGCAG”, the binding signal is 15300 fluorescence intensity (a.u.). With “CATCTTCCACTCAGTCACTCTCCGTCCTCTCCTGTCGACGCGGAGTCACCTAGTGCAG”, the binding signal was 4050 fluorescence intensity (a.u.).

As for “GTACTACCTAGTTAGGGATTTCGAATTAAGCTCGATCACGCGGAGTCACCTAGTGCAG”, the binding signal was 3430 fluorescence intensity (a.u.).
